PubChem BioAssay AID1224826 | NIAID, 2016
Screen: 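Regulators of Tlr4 signalling leading to Tnf-alpha expression in macrophages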 (primary screen). System: RAW264.7 G9 macrophages from mouse bearing reporters for p65 (GFP) and the Tnf promoter (mCherry). Knock-down reagent: siRNA pool against mouse genes, 100 nM. Timing: 16 h of LPS stimulation, after 2 days of siRNA transfection. Conditions: bacterial lipopolysaccharide (Salmonella minnesota R595), 10 ng/ml. Detection: 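Nuclear mCherry signal of the Tnf promoter reporter measured by imaging after background removal, scaled to each plate median and turned into robust z-scores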. Direction: Tnf reporter robust z-score: higher = stronger Tnf promoter reporter signal after LPS. Active means: 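a well counts as active at a score of -1.3 or below (Tlr4 knock-down control median) or above 3 (raised signal); controls and wells holding fewer than 50 cells are excluded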. Calls: active = Tnf reporter clearly lowered or raised; inactive = no clear change in Tnf reporter.
In all, the deposit lists about 17,000 reagents; below is an unselected part. In the full data, about 1,110 (6.6%) got an active call. 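Active means lowered or raised reporter signal; replicate intensities are raw and not normalised per plate.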 Unmarked entries are inactive. Not all columns of the deposit are shown.

What is on record for Ptk7?
Tnf reporter robust z-score: -0.45; fewer than 50 cells in well: enough cells in well

For Hrh4, what was measured?
Tnf reporter robust z-score: 0.91; fewer than 50 cells in well: enough cells in well

For Smad5, what does the deposit list?
Tnf reporter robust z-score: 0.39; fewer than 50 cells in well: enough cells in well

What is on record for Efnb3?
Tnf reporter robust z-score: -0.45; fewer than 50 cells in well: enough cells in well

What did the screen give for Tnfsf10?
Tnf reporter robust z-score: 1.03; fewer than 50 cells in well: enough cells in well

What is on record for Htra2?
Tnf reporter robust z-score: -1.37 (active); fewer than 50 cells in well: enough cells in well

With Mybl1, how do the results read?
Tnf reporter robust z-score: -0.44; fewer than 50 cells in well: enough cells in well

For Sertad2, how do the results read?
Tnf reporter robust z-score: 0.22; fewer than 50 cells in well: enough cells in well

What is on record for Myom1?
Tnf reporter robust z-score: -0.8; fewer than 50 cells in well: enough cells in well

Records listed so far called active:
Htra2: Tnf reporter robust z-score = -1.37 (active); fewer than 50 cells in well = enough cells in well

More entries:
Which result is listed for Ppm1a?
Tnf reporter robust z-score: 2.07; fewer than 50 cells in well: enough cells in well

With Xkr8, what was measured?
fewer than 50 cells in well: fewer than 50 cells per well; well left out of calls

What is on record for Rwdd1?
fewer than 50 cells in well: fewer than 50 cells per well; well left out of calls

How did the screen score Hlf?
Tnf reporter robust z-score: 0.01; fewer than 50 cells in well: enough cells in well

With Atpaf1, what does the deposit list?
Tnf reporter robust z-score: 1.47; fewer than 50 cells in well: enough cells in well

What is on record for Surf2?
fewer than 50 cells in well: fewer than 50 cells per well; well left out of calls

For Myl7, how do the results read?
Tnf reporter robust z-score: 0.01; fewer than 50 cells in well: enough cells in well

What is on record for Prodh?
Tnf reporter robust z-score: 0.1; fewer than 50 cells in well: enough cells in well

How did the screen score Vps4b?
Tnf reporter robust z-score: 0.45; fewer than 50 cells in well: enough cells in well

With Rragd, what does the deposit list?
Tnf reporter robust z-score: 0.04; fewer than 50 cells in well: enough cells in well

How did the screen score Or5g9?
Tnf reporter robust z-score: 0.53; fewer than 50 cells in well: enough cells in well

For Sycp2, how do the results read?
fewer than 50 cells in well: fewer than 50 cells per well; well left out of calls
